PubChem BioAssay AID1259254 | NCATS – 2017
This is one part, drawn at random, of about 59,000 reagents. In the full data, about 1,550 (2.6%) are marked active. 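G2 share is only a proxy for re-replication; each gene was hit by three separate siRNAs, and active genes were retested.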 The raw values are shown without normalisation. The numbers tell different reagents against one gene apart. The record does not give: the amount of reagent.

Screen: 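Finding genes that stop cells copying their DNA twice in one cycle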 (primary screen)
Cells: human HCT116 colorectal cancer cells
Reagent: single siRNA against human genes
Duration: 3 days
Read-out: 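Imaged Hoechst DNA stain sorts each cell into a cycle phase by DNA amount; per plate, G2 fraction set to 0% for non-targeting and 100% for GMNN siRNA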
Direction: G2 robust z-score and G2 cells, % of GMNN control: higher = more G2 cells, more excess DNA replication; raw share of cells in G2: higher = larger share of cells with G2 DNA content
Hit rule: 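An siRNA counts as active if its G2 robust z-score lies at least 5 MADs above the screen median; here such calls match roughly 38% of GMNN control or more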

| target | reagent | G2 robust z-score | G2 cells, % of GMNN control | raw share of cells in G2 (%) | activity call |
| --- | --- | --- | --- | --- | --- |
| SETD2 (GeneID 29072) | 1 | -0.0786 | 2.41 | 4.99 | inactive |
| SETD2 (GeneID 29072) | 2 | -0.476 | -0.38 | 3.87 | inactive |
| SETD2 (GeneID 29072) | 3 | -1.19 | -5.42 | 3.71 | inactive |
| PTPN11P4 (GeneID 391771) | 1 | -0.0117 | 2.89 | 4.86 | inactive |
| PTPN11P4 (GeneID 391771) | 2 | -0.706 | -2 | 2.72 | inactive |
| PTPN11P4 (GeneID 391771) | 3 | -0.251 | 1.2 | 5.29 | inactive |
| FAM241B (GeneID 219738) | 1 | 0.206 | 4.41 | 4.6 | inactive |
| FAM241B (GeneID 219738) | 2 | 0.668 | 7.67 | 6.36 | inactive |
| FAM241B (GeneID 219738) | 3 | 1.5 | 13.5 | 7.75 | inactive |
| NR1H2 (GeneID 7376) | 1 | 0.851 | 8.95 | 8.69 | inactive |
| NR1H2 (GeneID 7376) | 2 | -0.304 | 0.826 | 4.83 | inactive |
| NR1H2 (GeneID 7376) | 3 | -0.293 | 0.909 | 4.26 | inactive |
| B4GALT1 (GeneID 2683) | 1 | -0.385 | 0.257 | 5.33 | inactive |
| B4GALT1 (GeneID 2683) | 2 | 1.21 | 11.5 | 9.63 | inactive |
| B4GALT1 (GeneID 2683) | 3 | 0.0444 | 3.28 | 4.83 | inactive |
| RCC2P7 (GeneID 442221) | 1 | 5.35 | 40.6 | 19.3 | active |
| RCC2P7 (GeneID 442221) | 2 | -0.583 | -1.13 | 2.99 | inactive |
| RCC2P7 (GeneID 442221) | 3 | -0.166 | 1.8 | 3.73 | inactive |
| CDHR5 (GeneID 53841) | 1 | 0.715 | 8 | 6.87 | inactive |
| CDHR5 (GeneID 53841) | 2 | 0.694 | 7.85 | 7.14 | inactive |
| CDHR5 (GeneID 53841) | 3 | -0.599 | -1.24 | 5.39 | inactive |
| HS3ST2 (GeneID 9956) | 1 | -0.119 | 2.13 | 6.01 | inactive |
| HS3ST2 (GeneID 9956) | 2 | 2.48 | 20.4 | 13 | inactive |
| HS3ST2 (GeneID 9956) | 3 | -0.491 | -0.485 | 3.03 | inactive |
| SCN5A (GeneID 6331) | 1 | 7.88 | 58.4 | 26.6 | active |
| SCN5A (GeneID 6331) | 2 | 5.21 | 39.6 | 18.2 | active |
| SCN5A (GeneID 6331) | 3 | -0.741 | -2.25 | 3.5 | inactive |
| WDR12 (GeneID 55759) | 1 | 2.17 | 18.2 | 11.5 | inactive |
| WDR12 (GeneID 55759) | 2 | 0.367 | 5.55 | 6.44 | inactive |
| WDR12 (GeneID 55759) | 3 | -0.755 | -2.34 | 2.39 | inactive |
| NPLOC4 (GeneID 55666) | 1 | -0.693 | -1.91 | 3.79 | inactive |
| NPLOC4 (GeneID 55666) | 2 | 1.03 | 10.2 | 8.38 | inactive |
| NPLOC4 (GeneID 55666) | 3 | -0.636 | -1.51 | 2.66 | inactive |
| LOC729296 (GeneID 729296) | 1 | -0.215 | 1.46 | 4.49 | inactive |
| LOC729296 (GeneID 729296) | 2 | -0.342 | 0.56 | 3.5 | inactive |
| LOC729296 (GeneID 729296) | 3 | 1.49 | 13.5 | 8.35 | inactive |
| TBX4 (GeneID 9496) | 1 | -0.704 | -1.98 | 2.52 | inactive |
| TBX4 (GeneID 9496) | 2 | -0.576 | -1.09 | 4.31 | inactive |
| TBX4 (GeneID 9496) | 3 | 5.55 | 42 | 21.1 | active |
| PBX1 (GeneID 5087) | 1 | -0.666 | -1.72 | 2.78 | inactive |
| PBX1 (GeneID 5087) | 2 | -0.58 | -1.12 | 4.32 | inactive |
| PBX1 (GeneID 5087) | 3 | -0.543 | -0.85 | 2.8 | inactive |
| NBPF3 (GeneID 84224) | 1 | 0.93 | 9.51 | 7.27 | inactive |
| NBPF3 (GeneID 84224) | 2 | -0.735 | -2.2 | 2.8 | inactive |
| NBPF3 (GeneID 84224) | 3 | 0.874 | 9.12 | 5.17 | inactive |
| OR2W3 (GeneID 343171) | 1 | 1.58 | 14.1 | 8.83 | inactive |
| OR2W3 (GeneID 343171) | 2 | -0.252 | 1.19 | 3.78 | inactive |
| OR2W3 (GeneID 343171) | 3 | -0.111 | 2.18 | 5.07 | inactive |
| SLC39A9 (GeneID 55334) | 1 | -0.418 | 0.0243 | 4.53 | inactive |
| SLC39A9 (GeneID 55334) | 2 | -0.75 | -2.31 | 3.18 | inactive |
| SLC39A9 (GeneID 55334) | 3 | -0.358 | 0.448 | 3.28 | inactive |
| TRUB1 (GeneID 142940) | 1 | 0.309 | 5.14 | 6.58 | inactive |
| TRUB1 (GeneID 142940) | 2 | -0.396 | 0.183 | 4.78 | inactive |
| TRUB1 (GeneID 142940) | 3 | 1.31 | 12.2 | 11.8 | inactive |
| ZNF98 (GeneID 148198) | 1 | 2.81 | 22.7 | 11.4 | inactive |
| ZNF98 (GeneID 148198) | 2 | 2.45 | 20.2 | 9.15 | inactive |
| ZNF98 (GeneID 148198) | 3 | -0.503 | -0.574 | 2.87 | inactive |
| EVA1C (GeneID 59271) | 1 | 0.556 | 6.88 | 7.06 | inactive |
| EVA1C (GeneID 59271) | 2 | -0.471 | -0.347 | 4.29 | inactive |
| EVA1C (GeneID 59271) | 3 | -0.934 | -3.6 | 1.89 | inactive |
| HPD (GeneID 3242) | 1 | -0.375 | 0.328 | 5.81 | inactive |
| HPD (GeneID 3242) | 2 | 0.714 | 7.99 | 7.13 | inactive |
| HPD (GeneID 3242) | 3 | -0.124 | 2.1 | 5.81 | inactive |
| SPHK1 (GeneID 8877) | 1 | -1.91 | -10.5 | 2.33 | inactive |
| SPHK1 (GeneID 8877) | 2 | -0.848 | -3 | 4.1 | inactive |
| SPHK1 (GeneID 8877) | 3 | -0.875 | -3.19 | 2.66 | inactive |
| ELSPBP1 (GeneID 64100) | 1 | -1.25 | -5.85 | 1.15 | inactive |
| ELSPBP1 (GeneID 64100) | 2 | 0.55 | 6.84 | 7.56 | inactive |
| ELSPBP1 (GeneID 64100) | 3 | -0.462 | -0.287 | 4.48 | inactive |
